Small differences around the control level are noise.
Legend:
Assay in all cases: normalised response (% of control), CellTox Green; higher = less cell death (100 = DMSO, 0 = benzethonium chloride kill control)
Settings in all cases: incubation time: 72 h
CAL-148 = tested on: CAL-148
Protocol: (§1)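 DSRT, 72 h incubation, CellTox Green / CellTiter-Glo readout. Signal is normalised to DMSO and benzethonium chloride controls. Value is the normalised response at the lowest tested concentration.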

MDA-MB-231 = tested on: MDA-MB-231
Protocol: as §1

HCC1937 = tested on: HCC1937
Protocol: as §1

CAL-51 = tested on: CAL-51
Protocol: as §1

HDQ-P1 = tested on: HDQ-P1
Protocol: as §1

BT-474 = tested on: BT-474
Protocol: as §1

CAL-120 = tested on: CAL-120
Protocol: as §1

BT-549 = tested on: BT-549
Protocol: as §1

Hs578T = tested on: Hs578T
Protocol: as §1

MDA-MB-436 = tested on: MDA-MB-436
Protocol: as §1

MDA-MB-468 = tested on: MDA-MB-468
Protocol: as §1

HCC1599 = tested on: HCC1599
Protocol: as §1

MFM-223 = tested on: MFM-223
Protocol: as §1

CAL-85-1 = tested on: CAL-85-1
Protocol: as §1

MCF-10A = tested on: MCF-10A
Protocol: as §1

MDA-MB-453 = tested on: MDA-MB-453
Protocol: as §1

DU-4475 = tested on: DU-4475
Protocol: as §1

HCC1143 = tested on: HCC1143
Protocol: as §1

| Compound | normalised response (CAL-148) | normalised response (MDA-MB-231) | normalised response (HCC1937) | normalised response (CAL-51) | normalised response (HDQ-P1) | normalised response (BT-474) | normalised response (CAL-120) | normalised response (BT-549) | normalised response (Hs578T) | normalised response (MDA-MB-436) | normalised response (MDA-MB-468) | normalised response (HCC1599) | normalised response (MFM-223) | normalised response (CAL-85-1) | normalised response (MCF-10A) | normalised response (MDA-MB-453) | normalised response (DU-4475) | normalised response (HCC1143) |
| --- | --- | --- | --- | --- | --- | --- | --- | --- | --- | --- | --- | --- | --- | --- | --- | --- | --- | --- |
| CNNCc1ccc(C(=O)NC(C)C)cc1 [Procarbazine] (1 nM) | 81.9% | 113% | 103% | 113% | 109% | 98.5% | 102% | 101% | 114% | 103% | 66.8% | 112% | 98.6% | 102% | 98.7% | 102% | 109% | 124% |
| CO[C@H]1C[C@@H]2CC[C@@H](C)[C@@](O)(O2)C(=O)C(=O)N2CCCC[C@H]2C(=O)O[C@H]([C@H](C)C[C@@H]2CC[C@@H](O)[C@H](OC)C2)CC(=O)[C@H](C)/C=C(\C)[C@@H](O)[C@@H](OC)C(=O)[C@H](C)C[C@H](C)/C=C/C=C/C=C/1C [Sirolimus] (0.01 nM) | 82% | 99.9% | 98.7% | 103% | 100% | 100% | 98.3% | 91.4% | 107% | 86.5% | 101% | 107% | 104% | 103% | 106% | 103% | 106% | 75.2% |
| Oc1ncc(N(CCCl)CCCl)c(O)n1 [Uracil mustard] (1 nM) | 78.6% | 117% | 61.4% | 108% | 85% | 101% | 108% | 90% | 118% | 110% | 81.9% | 126% | 105% | 97.7% | 106% | 96.3% | 114% | 63.9% |

— the supplement of paper PMC4862054
